Our source for the binding values is paper PMC6694439.

This test has as its target T1, vascular endothelial-cadherin (VE-cadherin) (human (endogenous in EAhy926)) (UniProt P33151).
T1 sequence: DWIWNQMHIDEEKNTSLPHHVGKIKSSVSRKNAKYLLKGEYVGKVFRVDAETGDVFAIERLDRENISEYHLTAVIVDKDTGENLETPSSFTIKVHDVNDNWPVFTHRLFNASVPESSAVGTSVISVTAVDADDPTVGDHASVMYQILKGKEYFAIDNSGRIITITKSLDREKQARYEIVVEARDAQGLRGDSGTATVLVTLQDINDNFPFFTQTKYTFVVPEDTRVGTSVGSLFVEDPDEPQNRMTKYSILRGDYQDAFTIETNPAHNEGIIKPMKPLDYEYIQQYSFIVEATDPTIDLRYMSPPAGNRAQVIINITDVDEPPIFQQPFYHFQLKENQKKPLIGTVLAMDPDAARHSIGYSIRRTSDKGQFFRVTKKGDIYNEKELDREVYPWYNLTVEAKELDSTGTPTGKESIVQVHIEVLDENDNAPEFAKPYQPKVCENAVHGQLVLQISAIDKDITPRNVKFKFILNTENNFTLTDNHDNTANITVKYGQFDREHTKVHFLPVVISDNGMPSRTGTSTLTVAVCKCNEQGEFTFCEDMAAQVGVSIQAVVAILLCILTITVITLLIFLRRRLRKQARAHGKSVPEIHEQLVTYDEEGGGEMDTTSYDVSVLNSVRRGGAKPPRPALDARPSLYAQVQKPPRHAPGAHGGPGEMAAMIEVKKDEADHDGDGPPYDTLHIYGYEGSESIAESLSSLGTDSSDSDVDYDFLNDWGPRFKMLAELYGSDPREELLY
The test can be described thus: co-IP; EAhy926 monolayers, control or stimulated with IL-8 for 3 min, with or without L-NMA pretreatment; immunoprecipitated with VE-cadherin antibody and probed for p120.

These are yes or no findings as the source states them, for the method shown. Binding seen in cells or lysates may run through a third protein. Some binding calls cover weakened binding; strength is not graded here.

B1: p120 (protein, UniProt O60716 1-968)
chain: MDDSEVESTASILASVKEQEAQFEKLTRALEEERRHVSAQLERVRVSPQDANPLMANGTLTRRHQNGRFVGDADLERQKFSDLKLNGPQDHSHLLYSTIPRMQEPGQIVETYTEEDPEGAMSVVSVETSDDGTTRRTETTVKKVVKTVTTRTVQPVAMGPDGLPVDASSVSNNYIQTLGRDFRKNGNGGPGPYVGQAGTATLPRNFHYPPDGYSRHYEDGYPGGSDNYGSLSRVTRIEERYRPSMEGYRAPSRQDVYGPQPQVRVGGSSVDLHRFHPEPYGLEDDQRSMGYDDLDYGMMSDYGTARRTGTPSDPRRRLRSYEDMIGEEVPSDQYYWAPLAQHERGSLASLDSLRKGGPPPPNWRQPELPEVIAMLGFRLDAVKSNAAAYLQHLCYRNDKVKTDVRKLKGIPVLVGLLDHPKKEVHLGACGALKNISFGRDQDNKIAIKNCDGVPALVRLLRKARDMDLTEVITGTLWNLSSHDSIKMEIVDHALHALTDEVIIPHSGWEREPNEDCKPRHIEWESVLTNTAGCLRNVSSERSEARRKLRECDGLVDALIFIVQAEIGQKDSDSKLVENCVCLLRNLSYQVHREIPQAERYQEAAPNVANNTGPHAASCFGAKKGKDEWFSRGKKPIEDPANDTVDFPKRTSPARGYELLFQPEVVRIYISLLKESKTPAILEASAGAIQNLCAGRWTYGRYIRSALRQEKALSAIADLLTNEHERVVKAASGALRNLAVDARNKELIGKHAIPNLVKNLPGGQQNSSWNFSEDTVISILNTINEVIAENLEAAKKLRETQGIEKLVLINKSGNRSEKEVRAAALVLQTIWGYKELRKPLEKEGWKKSDFQVNLNNASRSQSSHSYDDSTLPLIDRNQKSDKKPDREEIQMSNMGSNTKSLDNNYSTPNERGDHNRTLDRSGDLGDMEPLKGTTPLMQDEGQESLEEELDVLVLDDEGGQVSYPSMQKI
As to B1, the binding result is listed as “binds”.
